Laboratory results: PubChem BioAssay AID652259 (Drosophila RNAi Screening Center, 2013)

- Purpose: 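Identify new Wingless signalling regulators in fly cells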 (primary screen)
- System: Drosophila clone 8 imaginal disc epithelial cells
- Knock-down reagent: long dsRNA against Drosophila genes
- Treatment: pathway stimulated by co-transfected Wingless expression plasmid
- Detection: 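Firefly luciferase from a tcf-site Wingless reporter, measured alongside co-transfected Renilla luciferase that tracks transfection; pathway stimulated by a Wingless plasmid; the firefly-to-Renilla ratio is not deposited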
- Reading the numbers: firefly reporter light: higher = more Wg reporter light, before normalisation; Renilla control light: higher = more transfected or surviving cells
- Call rule: 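Strong candidates differ from their plate mean by at least two out of four per-plate statistical tests; weak candidates meet just one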
- Calls: active = candidate regulator (raises or lowers reporter); inactive = not a candidate
The screen tested about 22,000 reagents; shown is an unselected part of those with a known target gene and a result. Of all reagents, 233 (1.1%) were called active. 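Light values are raw, unnormalised plate reads; the ratio scores behind the reporter calls were not deposited.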 Names joined by + are all predicted targets of the reagent. No sequences are given here. Not given: the amount of reagent, the time to read-out, the dose of the treatment.

What is on record for CG31122 [DRSC14787]?
firefly reporter light, replicate 1: 3619; firefly reporter light, replicate 2: 12342; Renilla control light, replicate 1: 1203; Renilla control light, replicate 2: 2965; activity call: inactive

What is on record for CG31122 [DRSC16286]?
firefly reporter light, replicate 1: 17161; Renilla control light, replicate 1: 3067; activity call: inactive

With Act88F (Actin 88F) [DRSC14105], what was measured?
firefly reporter light, replicate 1: 14434; Renilla control light, replicate 1: 4027; activity call: inactive

What did the screen give for CG11000 [DRSC12082]?
firefly reporter light, replicate 1: 2864; Renilla control light, replicate 1: 679; activity call: inactive

What did the screen give for CG11000 [DRSC12158]?
firefly reporter light, replicate 1: 14692; Renilla control light, replicate 1: 5018; activity call: inactive

With ZnT41F (Zinc transporter 41F) [DRSC04850], what was measured?
firefly reporter light, replicate 1: 11339; Renilla control light, replicate 1: 3808; activity call: inactive

How did the screen score tkv + CR14033 + tRNA:Asp-GTC-2-1 + 1 more [DRSC00861]?
firefly reporter light, replicate 1: 22621; Renilla control light, replicate 1: 10662; activity call: inactive

For Med (Medea) [DRSC16737], what was measured?
firefly reporter light, replicate 1: 22504; Renilla control light, replicate 1: 6912; activity call: inactive

With CG17528 [DRSC07761], how do the results read?
firefly reporter light, replicate 1: 5562; Renilla control light, replicate 1: 2760; activity call: inactive

With gprs [DRSC06761], how do the results read?
firefly reporter light, replicate 1: 4876; Renilla control light, replicate 1: 2016; activity call: inactive

What did the screen give for CG10337 [DRSC02038]?
firefly reporter light, replicate 1: 2893; firefly reporter light, replicate 2: 6476; Renilla control light, replicate 1: 850; Renilla control light, replicate 2: 2808; activity call: inactive

Which result is listed for sima (similar) [DRSC17055]?
reporter change call, replicate 1: Wg reporter activity raised; firefly reporter light, replicate 1: 11664; Renilla control light, replicate 1: 775; activity call: active

For Obp56b (Odorant-binding protein 56b) [DRSC06551], what does the deposit list?
firefly reporter light, replicate 1: 6873; Renilla control light, replicate 1: 2013; activity call: inactive

For BRWD3 [DRSC15369], what does the deposit list?
firefly reporter light, replicate 1: 6569; firefly reporter light, replicate 2: 8733; Renilla control light, replicate 1: 1065; Renilla control light, replicate 2: 1456; activity call: inactive

What did the screen give for BRWD3 [DRSC16032]?
firefly reporter light, replicate 1: 19756; Renilla control light, replicate 1: 10050; activity call: inactive

What did the screen give for spas (spastin) [DRSC15929]?
firefly reporter light, replicate 1: 2282; firefly reporter light, replicate 2: 8489; Renilla control light, replicate 1: 839; Renilla control light, replicate 2: 2547; activity call: inactive

For arx (asterix) [DRSC10386], what does the deposit list?
firefly reporter light, replicate 1: 4123; Renilla control light, replicate 1: 1626; activity call: inactive

What did the screen give for CR32733 + CG32797 [DRSC17705]?
firefly reporter light, replicate 1: 4352; Renilla control light, replicate 1: 1680; activity call: inactive

With CG17191 [DRSC15185], what was measured?
firefly reporter light, replicate 1: 7931; Renilla control light, replicate 1: 2619; activity call: inactive

With CG12239 [DRSC17832], how do the results read?
firefly reporter light, replicate 1: 3099; firefly reporter light, replicate 2: 7659; Renilla control light, replicate 1: 1302; Renilla control light, replicate 2: 2393; activity call: inactive

For Tom40 (Translocase of outer membrane 40) [DRSC18796], what does the deposit list?
firefly reporter light, replicate 1: 15492; Renilla control light, replicate 1: 7849; activity call: inactive

How did the screen score Spec2 (retired record) [DRSC12258]?
firefly reporter light, replicate 1: 7302; Renilla control light, replicate 1: 2224; activity call: inactive

What is on record for Spec2 (retired record) [DRSC22886]?
firefly reporter light, replicate 1: 5.95e5; firefly reporter light, replicate 2: 4.79e5; Renilla control light, replicate 1: 2.18e5; Renilla control light, replicate 2: 508; activity call: inactive

What is on record for CG46491 [DRSC06565]?
firefly reporter light, replicate 1: 11910; Renilla control light, replicate 1: 4448; activity call: inactive

With CG46491 [DRSC06566], what was measured?
firefly reporter light, replicate 1: 4744; Renilla control light, replicate 1: 2140; activity call: inactive

Part of the list above in another layout:
Gene	amplicon	reporter change call, replicate 1	firefly reporter light, replicate 1	firefly reporter light, replicate 2	Renilla control light, replicate 1	Renilla control light, replicate 2	activity call
sima (similar)	DRSC17055	Wg reporter activity raised	11664		775		active
Obp56b (Odorant-binding protein 56b)	DRSC06551		6873		2013		inactive
BRWD3	DRSC15369		6569	8733	1065	1456	inactive
